Experiment [1] concerns the target endogenous AKT. Briefly: co-immunoprecipitation and immunoblotting (FIGS. 8A-8F). For orientation: Immunoblotting shows a protein as a band on a membrane.
Experiment [2] addresses endogenous AKT. Briefly: co-immunoprecipitation and immunoblotting (FIGS. 8B, 8D).

Results are given in words; binding and its absence hold for the method and conditions named. In cells and extracts the contact can be indirect. Binding calls can cover weak binding; strength is not graded here. Tags and fused reporters may be left off the sequences shown.

B1: human CASTOR1 wild type (Flag-CASTOR1 WT) (other, UniProt Q8WTX7 1-329, looked up)
chain: MELHILEHRVRVLSVARPGLWLYTHPLIKLLFLPRRSRCKFFSLTETPEDYTLMVDEEGFKELPPSEFLQVAEATWLVLNVSSHSGAAVQAAGVTKIARSVIAPLAEHHVSVLMLSTYQTDFILVREQDLSVVIHTLAQEFDIYREVGGEPVPVTRDDSSNGFPRTQHGPSPTVHPIQSPQNRFCVLTLDPETLPAIATTLIDVLFYSHSTPKEAASSSPEPSSITFFAFSLIEGYISIVMDAETQKKFPSDLLLTSSSGELWRMVRIGGQPLGFDECGIVAQIAGPLAAADISAYYISTFNFDHALVPEDGIGSVIEVLQRRQEGLAS
notes: Expressed in cells and pulled down from lysates; also called HA-CASTOR1; cytosolic arginine sensor for mTORC1 subunit 1; not shown: N-terminal Flag tag
Consider B1, for which the binding result in experiment [1] and in experiment [2] was “binds” each time.
